Test results reported in patent US20250346883A1, “DENSITY GRADIENT CHEMOSTAT FOR ADAPTED LABORATORY EVOLUTION” (priority 2022, published 2025).
Values after ≈ are worked out from the molar mass of the structure shown.

Tested on: Escherichia coli K-12 substrain MG1655 (ancestor)
Experiment: MIC growth test of the ancestor strain in ciprofloxacin
Assay type: cell-based
Conditions: read-out: observed MIC
Protocol: Referring still to FIG. 1, the chemostat involves two layers of different media, separated by density. The top layer media (TLM) 110 was formed of LB broth diluted to 50% to reduce nutrient availability. The bottom layer media (BLM) 120 contained fully concentrated LB broth with 100 g/L of sucrose added so that its density caused it to settle below the TLM which contained no sucrose. To the bottom layer, a high concentration of a stressful compound was added. The appropriate concentration of stressor was determined by growing the ancestor strain on a 96-well microplate in increasing concentrations of the stressor for 24-48 hours, depending on the compound. The determined amount of stressor added to the chemostat was above the observed minimum inhibitory concentration (MIC) of the ancestor. This ensured that any observed growth in the chemostat was due to adaptation rather than a preestablished tolerance of the ancestor strain. […]
Dose-response curves were fit to the exponential growth rate and cell proliferation values calculated from OD600 curves for each sample. […] The ED50 values for the ancestor were calculated using growth rates and cell proliferation values from OD600 curves obtained during a test for the ancestor strain's MIC in ciprofloxacin. […]

Compound: O=C(O)c1cn(C2CC2)c2cc(N3CCNCC3)c(F)cc2c1=O [ciprofloxacin]
- MIC: 0.06 µg/mL (≈ 0.181 µM)
